In PubChem BioAssay AID1439 (NMMLSC, 2008):
Screen size: about 220,000 compounds; about 770 (0.35%) were called active. The shares of active, inactive and inconclusive entries below differ from those in the screen. Cut-off read from the data, not from the text of the source: active = binding response below about 49% or above about 150%; inconclusive = no clear call, values can overlap the other calls; inactive = in between.

Chains of the proteins cited; added tags and fusions are not shown.
UniProt P09471, whole entry, looked up: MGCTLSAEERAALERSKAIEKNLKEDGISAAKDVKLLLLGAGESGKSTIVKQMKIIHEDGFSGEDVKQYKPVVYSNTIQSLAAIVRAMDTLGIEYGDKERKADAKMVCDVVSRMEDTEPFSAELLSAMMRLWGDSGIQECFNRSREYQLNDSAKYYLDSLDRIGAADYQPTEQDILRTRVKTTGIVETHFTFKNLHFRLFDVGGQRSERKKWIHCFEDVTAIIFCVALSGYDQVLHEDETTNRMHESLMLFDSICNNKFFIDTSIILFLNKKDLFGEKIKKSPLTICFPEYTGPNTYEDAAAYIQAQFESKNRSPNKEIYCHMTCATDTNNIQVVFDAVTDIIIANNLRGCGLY

The molecules below were run against Guanine nucleotide-binding protein G(o) subunit alpha (Homo sapiens) (UniProt P09471) (assay: RGS7-Galphao binding modulators, primary screen, biochemical, multiplexed bead flow cytometry (AID 1439;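 note: fluorescent Galphao held in activated GDP-AlF4 state binding bead-coupled RGS7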)). Details: at 10 µM, actives lie on both sides.

Row | SMILES | binding response (% of control)
1 | Cc1cc(OCc2nc3ccccc3s2)ccc1N | inconclusive: 78.9%
2 | C=CCN1C(=S)N[C@@H]2CS(=O)(=O)C[C@@H]21 | inconclusive: 103%
3 | O=S(=O)(Nc1nc2ccccc2nc1NCC1CCCO1)c1ccc(F)cc1 (stereo not drawn) | inconclusive: 69%
4 | Cc1nc2ccccc2n1CCCOc1ccccc1 | inactive: 102%
5 | COc1ccc(/C=C(\NC(=O)c2cccs2)C(=O)NCc2ccco2)cc1OC | inconclusive: 0.15%
6 | CCC(=O)NC(c1ccc(OC)c(OC)c1)c1cc(Cl)c2cccnc2c1O (stereo not drawn) | inactive: 95.5%
7 | Cc1cccc(N2C(=O)/C(=C/c3ccccn3)SC2=S)c1 | inconclusive: 77.8%
8 | COc1ccc(CN2C(=O)CS(=O)CC2=O)cc1OC | inactive: 100%
9 | COc1cccc(OC)c1C(=O)NNC(=O)c1ccc(F)cc1 | inactive: 97.8%
10 | CC(C)CC(=O)NC1(C(F)(F)F)C(=O)N(CC(C)C)C2=C1C(=O)CC(C)(C)C2 (stereo not drawn) | active: 169% [activator]
11 | CCCNc1cc(=S)nc(N)[nH]1 | inconclusive: 63.5%
12 | CNC(=O)COC(=O)Cc1ccc(Cl)cc1 | inconclusive: 108%
13 | O=C(O)CNC(=O)C(c1ccccc1)c1ccccc1 | inconclusive: 96.7%
14 | CCC(CC)NC(=O)Cc1ccccc1OC | inactive: 103%
15 | CN(C)Cc1c(-c2ccc(Cl)cc2)nc2ccccn12 | inconclusive: 73%
16 | COC(=O)COc1cc2ccccc2cc1C(=O)Nc1ccccc1 | inconclusive: 99.7%
17 | CCc1ccc(N2CC(C(=O)N/N=C/c3cc([N+](=O)[O-])ccc3O)CC2=O)cc1 (stereo not drawn) | inactive: 96%
18 | CCOc1ccc(CCNC(=O)COC(=O)c2cc(OC)c(OC)c(OC)c2)cc1OCC | inconclusive: 90.9%
19 | OC1O[C@H](c2ccc3c(c2)OCO3)[C@H]2CO[C@H](c3ccc4c(c3)OCO4)[C@@H]12 (stereo partly drawn) | inconclusive: 80.3%
20 | CCCCCCn1c(SCCOC)nc2c1c(=O)[nH]c(=O)n2C | inconclusive: 112%

Some of the entries so far, in markdown.

| Row | SMILES | binding response (% of control) |
| --- | --- | --- |
| 1 | Cc1cc(OCc2nc3ccccc3s2)ccc1N | inconclusive: 78.9% |
| 4 | Cc1nc2ccccc2n1CCCOc1ccccc1 | inactive: 102% |
| 5 | COc1ccc(/C=C(\NC(=O)c2cccs2)C(=O)NCc2ccco2)cc1OC | inconclusive: 0.15% |
| 8 | COc1ccc(CN2C(=O)CS(=O)CC2=O)cc1OC | inactive: 100% |
| 9 | COc1cccc(OC)c1C(=O)NNC(=O)c1ccc(F)cc1 | inactive: 97.8% |
| 10 | CC(C)CC(=O)NC1(C(F)(F)F)C(=O)N(CC(C)C)C2=C1C(=O)CC(C)(C)C2 (stereo not drawn) | active: 169% [activator] |
| 11 | CCCNc1cc(=S)nc(N)[nH]1 | inconclusive: 63.5% |
| 13 | O=C(O)CNC(=O)C(c1ccccc1)c1ccccc1 | inconclusive: 96.7% |
| 14 | CCC(CC)NC(=O)Cc1ccccc1OC | inactive: 103% |
| 18 | CCOc1ccc(CCNC(=O)COC(=O)c2cc(OC)c(OC)c(OC)c2)cc1OCC | inconclusive: 90.9% |
| 19 | OC1O[C@H](c2ccc3c(c2)OCO3)[C@H]2CO[C@H](c3ccc4c(c3)OCO4)[C@@H]12 (stereo partly drawn) | inconclusive: 80.3% |
| 20 | CCCCCCn1c(SCCOC)nc2c1c(=O)[nH]c(=O)n2C | inconclusive: 112% |

Further entries:

Row | SMILES | binding response (% of control)
21 | O=C(COc1ccc(Cl)cc1)N1CCN(c2cccc(C(F)(F)F)c2)CC1 | inactive: 104%
22 | COCCCn1c(C)nnc1-c1cnn(-c2ccccc2)c1N | inconclusive: 113%
23 | COc1ccc(/C=N/OC(=O)Nc2ccc(Cl)cc2)c(OC)c1 | inconclusive: 104%
24 | Cn1c(-c2sccc2OCc2cccc(C(F)(F)F)c2)n[nH]c1=S | inconclusive: 100%
25 | CCc1[nH]nc(C(=O)N2CCCC(CCC(=O)N3CCN(c4ccccn4)CC3)C2)c1C (stereo not drawn) | inactive: 106%
26 | Fc1ccc(NC(=S)N2CCCN(c3ccc(C(F)(F)F)cn3)CC2)c(F)c1 | inconclusive: 101%
27 | O=C(NCc1ccc2c(c1)OCO2)c1ccc(Cl)s1 | inconclusive: 104%
28 | COc1ccccc1OCC(O)CNCc1ccc2c(c1)OCO2 (stereo not drawn) | inconclusive: 88.7%
29 | COCCn1c(SCC(=O)Nc2ccc3[nH]c(=O)[nH]c3c2)nc2ccccc2c1=O | inconclusive: 138%
30 | CCCc1c(C(=O)Nc2ccc(C(F)(F)F)cc2)cnn1-c1ccccc1 | inconclusive: 127%
31 | Cc1c(C(=O)OC/C(O)=C(\C#N)c2nc3ccccc3[nH]2)oc2ccc(Br)cc12 | inconclusive: 102%
32 | CC(O)[C@H]1CNC(=O)C(=O)N1CC1CCCCC1 (stereo partly drawn) | inconclusive: 112%
33 | Cc1nn(Cc2nnc(SCC(=O)Nc3ccc(Cl)cc3)n2C)c(C)c1[N+](=O)[O-] | inconclusive: 77.7%
34 | O=C(COC(=O)c1ccccc1F)Nc1cc(S(=O)(=O)N2CCOCC2)ccc1N1CCCC1 | inconclusive: 87.2%
35 | Nc1ccc(S(=O)(=O)NC2=NCCCCC2)cc1 | inconclusive: 99%
36 | CN(C)CCN(Cc1ccccc1)S(=O)(=O)c1ccc2c(c1)n(C)c(=O)c(=O)n2C | inconclusive: 98.7%
37 | CC(C)CNC(=O)c1cccc(NC(=O)COc2cccc([N+](=O)[O-])c2)c1 | inactive: 96.3%
38 | Nc1ccc(-c2ccc(N)cc2C(F)(F)F)c(C(F)(F)F)c1 | active: 204% [activator]
39 | Cn1c(N)c(C(=O)COC(=O)COc2ccc(C#N)cc2)c(=O)n(C)c1=O | inconclusive: 54.6%
40 | CC(=O)c1ccccc1NS(C)(=O)=O | inconclusive: 118%

Row | SMILES | binding response (% of control)
41 | Nc1nc(NC(=O)CCC(=O)O)nn1-c1ccccc1 | inconclusive: 105%
42 | COc1ccc(C(=O)N2CC(=O)Nc3ccccc32)cc1S(=O)(=O)N1CCOCC1 | inconclusive: 55.1%
43 | O=C(c1ccc([N+](=O)[O-])cc1)N(Cc1ccc(Br)cc1)N1C(=O)CCCC1=O | inactive: 97.2%
44 | COC(=O)C(Cc1ccccc1)NC(=S)NC(=O)c1ccccc1 (stereo not drawn) | inconclusive: 124%
45 | O=c1nc(-c2ccccc2)nc(-c2ccccc2)[nH]1 | inconclusive: 43.8%
46 | Cc1cc(C)n(-c2nnc(N3CCN(c4ccc(F)cc4)CC3)nn2)n1 | inconclusive: 107%
47 | CC(=O)Nc1ccc(NC(=O)C(Sc2ccccc2)c2ccccc2)cc1 (stereo not drawn) | inconclusive: 84.3%
48 | Cc1nc2c(C#N)cnn2c2c1CCN2CC1CCCO1 (stereo not drawn) | inconclusive: 115%
49 | CCOC(=O)c1ccc(NC(=O)Oc2cc(C)c(Cl)cc2C(C)C)cc1 | inconclusive: 113%
50 | CN(C)NC(=S)Nc1cccc(C(F)(F)F)c1 | inconclusive: 105%
51 | Oc1ccccc1/C=C/c1noc(-c2ccccc2O)n1 | inconclusive: 125%
52 | CCc1ccc(NC(=O)CSc2nc3ccccc3c(=O)n2CCCN2CCC(C)CC2)cc1 | inactive: 101%
53 | CCCCC(=O)NNC(=O)c1c(O)c2ccccc2[nH]c1=O | inconclusive: 117%
54 | Oc1ccccc1N=Cc1c(O)ccc2oc3c(c12)CCCC3 | inconclusive: 93.4%
55 | CC(CCC(=O)O)C1CC[C@@]2(C)C3C(=O)CC4C(C)(C)C(O)CC[C@]4(C)C3C(=O)C[C@]12C (stereo partly drawn) | inconclusive: 399%
56 | O=[N+]([O-])c1cccc(/C=N/NC2CCS(=O)(=O)C2)c1 (stereo not drawn) | inconclusive: 106%
57 | Cc1ccc(Nc2ccc(C(=O)NC3CCCCC3)cn2)cc1 | inconclusive: 119%
58 | N#C/C(=C/c1ccc(Br)o1)C(N)=S | inconclusive: 51.8%
